Drawing on article PMC10506250, this text covers binding for one substance.

Amino acid sequences for entries named in this document (tags omitted).
UniProt Q9JLV5: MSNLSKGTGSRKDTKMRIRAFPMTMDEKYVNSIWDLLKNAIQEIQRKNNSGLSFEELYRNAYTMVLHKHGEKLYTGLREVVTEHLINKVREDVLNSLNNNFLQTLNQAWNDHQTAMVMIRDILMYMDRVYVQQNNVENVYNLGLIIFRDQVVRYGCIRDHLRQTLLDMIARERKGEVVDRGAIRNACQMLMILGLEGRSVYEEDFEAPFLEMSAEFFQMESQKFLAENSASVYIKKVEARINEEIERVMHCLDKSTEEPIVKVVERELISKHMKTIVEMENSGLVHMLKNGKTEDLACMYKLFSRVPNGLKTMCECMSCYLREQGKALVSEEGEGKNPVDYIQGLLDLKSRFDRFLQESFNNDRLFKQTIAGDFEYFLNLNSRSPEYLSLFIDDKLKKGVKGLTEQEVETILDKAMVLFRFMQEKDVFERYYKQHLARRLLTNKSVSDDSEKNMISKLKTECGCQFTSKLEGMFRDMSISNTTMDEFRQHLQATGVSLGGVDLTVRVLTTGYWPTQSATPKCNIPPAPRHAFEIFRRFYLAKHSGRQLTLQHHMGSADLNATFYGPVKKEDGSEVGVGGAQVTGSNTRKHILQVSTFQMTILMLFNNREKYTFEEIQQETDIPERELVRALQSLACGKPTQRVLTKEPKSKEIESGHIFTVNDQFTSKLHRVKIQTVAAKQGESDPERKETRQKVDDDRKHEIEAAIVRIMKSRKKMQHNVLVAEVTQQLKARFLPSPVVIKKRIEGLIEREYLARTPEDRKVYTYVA

The target of this assay is T1, Nuclear Factor Erythroid 2-Related Factor 2 (NFE2L2, Nrf2), endogenous in NIH-3T3 fibroblasts (mouse (endogenous in NIH-3T3)) (UniProt Q60795).
T1 sequence: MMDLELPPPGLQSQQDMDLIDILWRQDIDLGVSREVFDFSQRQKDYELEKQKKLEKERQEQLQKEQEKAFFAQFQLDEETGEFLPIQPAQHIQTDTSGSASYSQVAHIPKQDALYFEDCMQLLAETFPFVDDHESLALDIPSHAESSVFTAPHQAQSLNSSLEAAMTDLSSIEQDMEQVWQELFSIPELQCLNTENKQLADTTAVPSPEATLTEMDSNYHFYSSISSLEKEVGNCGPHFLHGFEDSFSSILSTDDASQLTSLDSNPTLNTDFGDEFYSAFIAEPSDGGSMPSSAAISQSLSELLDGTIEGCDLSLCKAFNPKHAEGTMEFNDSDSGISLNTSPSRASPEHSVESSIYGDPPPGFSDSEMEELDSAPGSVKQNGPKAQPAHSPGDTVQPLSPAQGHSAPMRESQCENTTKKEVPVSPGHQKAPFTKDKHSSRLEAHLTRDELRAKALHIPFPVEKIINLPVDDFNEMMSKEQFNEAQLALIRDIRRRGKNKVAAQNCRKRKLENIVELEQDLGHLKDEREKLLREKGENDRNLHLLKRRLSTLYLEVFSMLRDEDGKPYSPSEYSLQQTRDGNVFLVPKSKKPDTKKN
In words: co-IP; NIH-3T3 lysate in NETN buffer (20 mM Tris pH 8.0, 100 mM NaCl, 1 mM EDTA, 0.5% NP-40), 1000 ug lysate, Protein G Sepharose beads and the indicated antibodies, immunoblot with anti-Nrf2 and anti-CUL3; cells treated with MG132, with or without miR-1290 mimic and CUL3 overexpression. For orientation: A western blot detects proteins with antibodies after separation by electrophoresis.

These are yes or no findings as the source states them, for the method shown. In cells and extracts the contact can be indirect. Some entries that bind do so weakly or less than the wild type.

For “Cullin3 (CUL3), endogenous in NIH-3T3 fibroblasts (from UniProt Q9JLV5 1-768)”, the binding result is reported as “binds”.
